Data: doi:10.1101/2023.06.08.544171
Results are given in words; binding and its absence hold for the method and conditions named. Binding seen in cells or lysates may run through a third protein. Some entries that bind do so weakly or less than the wild type.

The chains behind the UniProt entries cited, without tags or fusion partners. Residues count along the entry.
UniProt Q03431, residues 27-593: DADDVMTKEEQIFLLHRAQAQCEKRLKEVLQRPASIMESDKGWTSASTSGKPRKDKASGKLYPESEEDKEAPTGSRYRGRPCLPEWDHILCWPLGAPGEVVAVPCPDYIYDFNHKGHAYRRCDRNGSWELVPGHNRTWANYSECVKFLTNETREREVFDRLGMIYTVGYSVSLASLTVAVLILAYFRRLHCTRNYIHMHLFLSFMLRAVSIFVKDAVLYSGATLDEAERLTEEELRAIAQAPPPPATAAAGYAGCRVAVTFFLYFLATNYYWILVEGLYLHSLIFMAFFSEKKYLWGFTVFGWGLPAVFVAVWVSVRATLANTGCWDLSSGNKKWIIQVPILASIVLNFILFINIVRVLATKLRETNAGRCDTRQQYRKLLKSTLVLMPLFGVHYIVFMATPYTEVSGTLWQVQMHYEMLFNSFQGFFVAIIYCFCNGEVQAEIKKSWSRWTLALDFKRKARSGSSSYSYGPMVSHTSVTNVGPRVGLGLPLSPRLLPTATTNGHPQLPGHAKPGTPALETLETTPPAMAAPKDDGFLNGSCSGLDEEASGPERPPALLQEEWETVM
UniProt P32121: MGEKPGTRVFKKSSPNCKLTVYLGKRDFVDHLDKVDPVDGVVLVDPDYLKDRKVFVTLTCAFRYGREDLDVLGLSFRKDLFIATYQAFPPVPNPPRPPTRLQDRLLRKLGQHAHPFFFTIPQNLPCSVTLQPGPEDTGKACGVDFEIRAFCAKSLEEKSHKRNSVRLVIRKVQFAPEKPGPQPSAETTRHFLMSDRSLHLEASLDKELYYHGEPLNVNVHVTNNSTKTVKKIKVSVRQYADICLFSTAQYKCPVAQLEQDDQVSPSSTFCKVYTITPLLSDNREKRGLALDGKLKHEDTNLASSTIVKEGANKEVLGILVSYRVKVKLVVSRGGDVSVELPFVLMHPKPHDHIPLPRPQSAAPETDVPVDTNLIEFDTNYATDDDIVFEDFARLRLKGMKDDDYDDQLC

Molecular target: PTH1R-LgBiT (pBiT vector, β-arrestin recruitment assay) (human) (UniProt Q03431)
Assay: split reporter

binding: binds
Substance: SmBiT-β-arrestin2 (from UniProt P32121 1-409)
